Laboratory results from paper PMC6261971.
No constants are given. Whether binding was seen depends on the method and setting. In cells and extracts the contact can be indirect. Some entries that bind do so weakly or less than the wild type. For part of these data: Where a sequence is shown, tags or fusion partners need not be part of it.

By UniProt entry, the sequences of proteins in these tests, tags left out.
UniProt P62993: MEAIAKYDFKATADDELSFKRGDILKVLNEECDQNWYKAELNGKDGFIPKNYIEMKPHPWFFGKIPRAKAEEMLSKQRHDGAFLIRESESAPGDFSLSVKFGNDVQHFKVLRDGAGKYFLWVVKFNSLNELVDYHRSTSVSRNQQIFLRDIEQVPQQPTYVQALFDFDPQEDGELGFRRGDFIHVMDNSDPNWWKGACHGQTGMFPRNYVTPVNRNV

What was measured:
[1] = molecular target: endogenous Grb2 (human (endogenous in BGC-823 and SGC-7901)) (UniProt P62993); test: co-IP; BGC-823 cell lysates, endogenous proteins, immunoprecipitated with anti-Grb2 or anti-DENND1A antibody, western blot
[2] = molecular target: endogenous Grb2 (human (endogenous in BGC-823 and SGC-7901)) (UniProt P62993); test: co-IP; SGC-7901 cell lysates, endogenous proteins, immunoprecipitated with anti-Grb2 or anti-DENND1A antibody, western blot
Flag-Grb2 [3] = molecular target: Flag-Grb2 (UniProt P62993); test: co-IP; BGC-823 cells transfected with Flag-Grb2 and HA-DENND1A, treated with or without EGF, western blot
Flag-Grb2 [4] = molecular target: Flag-Grb2 (UniProt P62993); test: co-IP; HEK-293T cells transiently transfected with Flag-Grb2 and HA-DENND1A, immunoprecipitated with anti-HA or anti-Flag antibody, western blot
GST-Grb2 = GST-Grb2 (UniProt P62993); test: pull-down; GST-Grb2 bound to glutathione beads incubated in vitro with lysates of HEK-293T cells transfected with or without HA-DENND1A, western blot; only the target purified
Flag-Grb2 [5] = molecular target: Flag-Grb2 (UniProt P62993); test: co-IP; HA-tagged DENND1A fragments with Flag-Grb2, and Flag-tagged Grb2 fragments with HA-DENND1A, in transfected cells (BGC-823 by the text, HEK-293T by the legend), immunoblotting

Measured: binding

B1: endogenous DENND1A (protein, UniProt Q8TEH3 1-1009)
chain: MGSRIKQNPETTFEVYVEVAYPRTGGTLSDPEVQRQFPEDYSDQEVLQTLTKFCFPFYVDSLTVSQVGQNFTFVLTDIDSKQRFGFCRLSSGAKSCFCILSYLPWFEVFYKLLNILADYTTKRQENQWNELLETLHKLPIPDPGVSVHLSVHSYFTVPDTRELPSIPENRNLTEYFVAVDVNNMLHLYASMLYERRILIICSKLSTLTACIHGSAAMLYPMYWQHVYIPVLPPHLLDYCCAPMPYLIGIHLSLMEKVRNMALDDVVILNVDTNTLETPFDDLQSLPNDVISSLKNRLKKVSTTTGDGVARAFLKAQAAFFGSYRNALKIEPEEPITFCEEAFVSHYRSGAMRQFLQNATQLQLFKQFIDGRLDLLNSGEGFSDVFEEEINMGEYAGSDKLYHQWLSTVRKGSGAILNTVKTKANPAMKTVYKFAKDHAKMGIKEVKNRLKQKDIAENGCAPTPEEQLPKTAPSPLVEAKDPKLREDRRPITVHFGQVRPPRPHVVKRPKSNIAVEGRRTSVPSPEQPQPYRTLRESDSAEGDEAESPEQQVRKSTGPVPAPPDRAASIDLLEDVFSNLDMEAALQPLGQAKSLEDLRAPKDLREQPGTFDYQRLDLGGSERSRGVTVALKLTHPYNKLWSLGQDDMAIPSKPPAASPEKPSALLGNSLALPRRPQNRDSILNPSDKEEVPTPTLGSITIPRPQGRKTPELGIVPPPPIPRPAKLQAAGAALGDVSERLQTDRDRRAALSPGLLPGVVPQGPTELLQPLSPGPGAAGTSSDALLALLDPLSTAWSGSTLPSRPATPNVATPFTPQFSFPPAGTPTPFPQPPLNPFVPSMPAAPPTLPLVSTPAGPFGAPPASLGPAFASGLLLSSAGFCAPHRSQPNLSALSMPNLFGQMPMGTHTSPLQPLGPPAVAPSRIRTLPLARSSARAAETKQGLALRPGDPPLLPPRPPQGLEPTLQPSAPQQARDPFEDLLQKTKQDVSPSPALAPAPDSVEQLRKQWETFE
binds: [1] | [2]

B2: HA-DENND1A (protein, UniProt Q8TEH3 1-1009)
chain: B1 chain
binds: Flag-Grb2 [3] | Flag-Grb2 [4] | GST-Grb2 | Flag-Grb2 [5]
